Not every detail of the peptide structures is certain; ends, links or a residue may be inferred. Where no end group is shown, it is not given here.
Assays:
brain G-protein = assay: GTPγS binding assay, brain G-protein; format: biochemical, bovine; details: peptide 10 μM
Method: A and B, the carboxyl region of AGS3 (Pro^463-Ser^650) containing all four GPR repeats was generated as a His-tagged (A) or GST fusion (B) protein for protein interaction assays as described under Examples. All interactions were done in the presence of 10 μM GDP, and the input lanes represent one-tenth of the G-protein used in each interaction assay. A, Giα1 (75 nM) was incubated with 300 nM His-tagged AGS3-GPR in the absence and presence of increasing amounts of the GPR peptide, after which bound Giα was isolated on a nickel affinity matrix, and samples were processed for immunoblotting with Giα antisera. The blot in the upper panel of A was stripped and reprobed with AGS3 antisera to provide internal controls for protein loading. B, Giα2 (75 nM) was incubated with 300 nM AGS3-GPR or GST in the presence and absence of 100 μM GPR consensus peptide, GPR peptide Q15A, or GPR peptide R23F. […] C and D, GTPγ^35S binding to G-proteins (100 nM) was measured in the absence and presence of peptides as described in the Examples. Data are expressed as the percent of specific binding (˜5 pmol) observed in the absence of peptide and represent the means±S.E. derived from three experiments. […]
GTPγS Binding Assays—GTPγS binding assays were generally conducted as described (39). […] Radioactivity bound to the filters was determined by liquid scintillation counting. […]

By UniProt entry, the sequences of proteins in these tests, tags left out.
UniProt P09471, whole entry: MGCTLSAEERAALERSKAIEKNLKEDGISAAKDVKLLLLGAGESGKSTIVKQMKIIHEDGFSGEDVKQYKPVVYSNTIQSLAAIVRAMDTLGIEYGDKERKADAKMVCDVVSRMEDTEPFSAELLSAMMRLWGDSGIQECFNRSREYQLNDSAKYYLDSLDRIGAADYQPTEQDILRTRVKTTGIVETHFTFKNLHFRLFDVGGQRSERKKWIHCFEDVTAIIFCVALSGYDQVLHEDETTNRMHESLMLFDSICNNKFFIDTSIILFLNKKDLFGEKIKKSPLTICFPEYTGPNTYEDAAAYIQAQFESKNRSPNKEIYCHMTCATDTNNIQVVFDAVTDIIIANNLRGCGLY

Goα = molecular target: T1, Goα (Homo sapiens, UniProt P09471); assay: GTPγS binding assay, Goα; format: biochemical; details: peptide 10 μM
T1 construct: made in house; host or cells: Sf9 insect cells

[1] = system: GiαGDP binding to AGS3-GPR; assay: Binding of 3H-GDP-loaded Giα to GST-AGS3-GPR; details: peptide 10 μM, 300 nM GST-AGS3-GPR
Giα2 = assay: GDP dissociation assay; format: biochemical; details: peptide 10 μM; dissociation initiated by 100 μM GTPγS

For “TMGEEDFFDLLAKSQSKRMDDQRVDLAG-NH2 [GPR consensus peptide]”, the “effect on nucleotide (GTPγS) binding to brain G-protein” value (brain G-protein) was “only minimally affected”, the “effect on nucleotide (GTPγS) binding to Goα” value (Goα) was “only minimally affected” and the “GiαGDP binding to AGS3-GPR” value [1] was “blocked”. For the same substance, the “rate of GDP dissociation” value (Giα2) was “markedly diminished”.

— US20030054411A1, “GPR motifs and uses thereof” (priority 2001, published 2003)
